Results: PubChem BioAssay AID662 (National Center for Advancing Translational Sciences (NCATS), 2007)
This is one part of the list. The main result of the screen is listed elsewhere. These columns were measured beside it and carry no call. Compounds called inactive in the main read-out are mostly missing here. Potencies come from curve fits of mixed quality, noted in brackets.

Assay: Cell signaling CRE-BLA (Fsk stim)
Settings: CHO CRE-bla reporter (cAMP response element driving beta-lactamase), forskolin EC10, beta-lactamase ratio; measured here: 460 nm blue channel
Method in brief: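 qHTS titration format; CRE-bla CHO reporter; stimulus EC10 NKH 477, a water-soluble forskolin. Read: CCF4 460/530 nm ratio. Potency expressed as AC50 for activators or inhibitors.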

Row | SMILES | AC50
1 | C=C1C[C@@]23C[C@]1(O)CC[C@@H]2[C@]12C=C[C@@H](O)[C@@](C)(C(=O)O1)[C@@H]2[C@@H]3C(=O)O | 31.6 µM [falling, single point]
2 | CC(C)COC(=O)N1CC(O)CC1C(=O)O (stereo not drawn) | 25.1 µM [falling, single point]
3 | CC[C@H]1C2=C3C(CC[C@H]4C(OCc5ccc(F)cc5C(F)(F)F)OC[C@](C)([C@@H]34)N(C(=O)OC(C)(C)C)C2)C(COC(C)=O)C1COC(C)=O (stereo partly drawn) | 5.01 µM [rising, full curve, poor fit]
4 | O=C(Cc1cc(=O)oc2cc(O)ccc12)NCC1CCC(C(=O)O)CC1 (stereo not drawn) | 10 µM [rising, partial curve]
5 | CCOC(=O)CCC(=O)Nc1ccc(S(=O)(=O)N2CCCC2)cc1 | 25.1 µM [falling, single point]
6 | Cc1ccc(C(=O)OCc2nnc(-c3ccccc3)o2)o1 | 0.126 µM [falling, full curve, poor fit]
7 | COc1cc(C)c(Cl)c(C)c1S(=O)(=O)NCc1ccc2c(c1)OCO2 | 12.6 µM [falling, partial curve, poor fit]
8 | Cc1cccc(N2CCN(C(=O)C3CCCCC3)CC2)c1C | 12.6 µM [falling, partial curve]
9 | COc1cccc(C2=CC(c3ccc(OC)c(OC)c3OC)n3nnnc3N2)c1 (stereo not drawn) | 10 µM [rising, partial curve]
10 | CS(=O)(=O)Nc1cccc(-c2nc(NCc3cccs3)c3ccccc3n2)c1 | 3.16 µM [rising, partial curve]
11 | CC(=O)c1c(C)nc2ccccc2c1N | 25.1 µM [rising, single point]
12 | Cc1ccc(NC(=O)C2CCN(S(=O)(=O)c3cnc[nH]3)CC2)nc1 | 5.01 µM [falling, single point]
13 | CCCCNC(=O)CC(NS(=O)(=O)c1ccc(C)cc1)c1ccco1 (stereo not drawn) | 10 µM [falling, partial curve]
14 | COC(=O)CN(C#N)c1nc(OC)nc(N(C)C)n1 | 20 µM [rising, partial curve]
15 | CNc1ncnc2ccc(-c3cccc(OC)c3)cc12 | 5.01 µM [rising, full curve, poor fit]
16 | CC(=O)Nc1nonc1NC(=O)CSc1nc2ccccc2o1 | 2 µM [rising, partial curve]
17 | O=C(OCCn1cncn1)c1cc2ccccc2oc1=O | 0.251 µM [falling, full curve]
18 | Cc1cc(C)c(/C=C2/C(=O)Nc3ccccc32)[nH]1 | 10 µM [falling, full curve, poor fit]
19 | CC1CN(c2nn3c(=O)c4ccccc4nc3c3ccccc23)CC(C)O1 (stereo not drawn) | 5.01 µM [rising, partial curve]
20 | CC(C)c1nc(SCC(=O)Nc2cccc(C(F)(F)F)c2)c2c(=O)n(C)c(=O)n(C)c2n1 | 2.51 µM [rising, full curve]
21 | COc1ccc(S(=O)(=O)N2CCCC(C(=O)O)C2)cc1Cl (stereo not drawn) | 3.98 µM [rising, single point]
22 | O=C(NCc1cccs1)c1ccc(N2CCCCC2)nc1 | 25.1 µM [rising, single point]
23 | C/C=C/Cn1c(SC)nc2c1c(=O)[nH]c(=O)n2C | 10 µM [rising, partial curve]

Sorted by SMILES length (low to high): six of the compounds above.
Row | SMILES | AC50
11 | CC(=O)c1c(C)nc2ccccc2c1N | 25.1 µM [rising, single point]
14 | COC(=O)CN(C#N)c1nc(OC)nc(N(C)C)n1 | 20 µM [rising, partial curve]
13 | CCCCNC(=O)CC(NS(=O)(=O)c1ccc(C)cc1)c1ccco1 (stereo not drawn) | 10 µM [falling, partial curve]
19 | CC1CN(c2nn3c(=O)c4ccccc4nc3c3ccccc23)CC(C)O1 (stereo not drawn) | 5.01 µM [rising, partial curve]
7 | COc1cc(C)c(Cl)c(C)c1S(=O)(=O)NCc1ccc2c(c1)OCO2 | 12.6 µM [falling, partial curve, poor fit]
3 | CC[C@H]1C2=C3C(CC[C@H]4C(OCc5ccc(F)cc5C(F)(F)F)OC[C@](C)([C@@H]34)N(C(=O)OC(C)(C)C)C2)C(COC(C)=O)C1COC(C)=O (stereo partly drawn) | 5.01 µM [rising, full curve, poor fit]

Remaining list, next part

Row | SMILES | AC50
24 | O=C(c1ccco1)N1CCN(/C(=N/S(=O)(=O)c2cccs2)c2ccccc2Cl)CC1 | 3.98 µM [falling, partial curve]
25 | O=C(O)CCCC(=O)Nc1cccc2cccnc12 | 1 µM [falling, full curve, poor fit]
26 | CC(=O)Nc1c(C(=O)c2ccccc2)oc2ccccc12 | 12.6 µM [rising, single point]
27 | CCOCCOC(=O)C1=C(C)NC2=C(C(=O)CC(c3cccs3)C2)C1c1ccsc1 (stereo not drawn) | 10 µM [rising, partial curve]
28 | COc1cccc(-c2cncnc2-n2ccnc2)c1 | 7.94 µM [rising, partial curve]
29 | CC(=O)Nc1ccc2nc(C3CCCCC3)[nH]c2c1 | 0.398 µM [falling, single point]
30 | CCc1ccc(-c2nc(CSCC(=O)N3CCN(c4ccccn4)CC3)c(C)o2)cc1 | 6.31 µM [falling, partial curve, poor fit]
31 | Cc1ccc(SCc2[nH]nc3c2C(c2ccco2)C(C#N)=C(N)O3)cc1 (stereo not drawn) | 12.6 µM [falling, single point]
32 | O=c1oc2c3c4c(cc2c2c1CCC2)OCCN4CCC3 | 10 µM [rising, partial curve]
33 | N#Cc1nc(Cc2cccc3ccccc23)oc1NCC1CCCO1 (stereo not drawn) | 12.6 µM [rising, single point]
34 | COc1ccccc1CNc1ncnc2ccc(-c3c(C)noc3C)cc12 | 5.01 µM [rising, partial curve]
35 | CCOc1ccccc1C1NC(=O)NC(C)=C1C(=O)OC1CCCCC1 (stereo not drawn) | 12.6 µM [rising, single point]
36 | c1ccc(Cn2nnnc2C(c2ccncc2)N2CCOCC2)cc1 (stereo not drawn) | 3.98 µM [rising, single point]
37 | Cn1nc(-c2ccc(N3CCOCC3)c(NC(=O)c3ccccc3)c2)c2ccccc2c1=O | 5.01 µM [rising, partial curve]
38 | COC(=O)c1cccnc1-n1c(=O)c2cccnc2n(Cc2ccc(Cl)cc2)c1=O | 0.01 µM [falling, full curve, poor fit]
39 | COc1cc2c(cc1OC)CN(C(=O)c1cc(S(=O)(=O)N3CCOCC3)ccc1Cl)CC2 | 10 µM [falling, single point]
40 | N#CC1=C(SCC(=O)Nc2cccc3cccnc23)NC(=O)C(C#N)C12CCCCC2 (stereo not drawn) | 12.6 µM [falling, single point]
41 | NC(=O)NC(=O)CSc1cccc(C(F)(F)F)c1 | 3.98 µM [falling, partial curve]
42 | O=C(O)C1CCN(S(=O)(=O)N2CCOCC2)CC1 | 25.1 µM [rising, single point]
43 | COc1ccc2nc(Nc3nc(C)c(C(C)=O)s3)sc2c1 | 10 µM [rising, partial curve]
44 | CS(=O)(=O)c1nc(-c2ccco2)cc(C(F)(F)F)n1 | 0.501 µM [falling, full curve]
45 | CC(C)Cc1nc2oc3c(=O)[nH]cnc3c2c2c1CCC2 | 5.01 µM [falling, full curve]
46 | CCOC(=O)c1cnc(-n2nc(C)cc2C)nc1NCCc1ccccc1 | 3.16 µM [falling, partial curve]

Row | SMILES | AC50
47 | O=C(Nc1ccc2c(c1)OCO2)c1c(Cl)nc2sccn12 | 10 µM [rising, single point]
48 | CC1(C)C(c2ccccc2)=NC(c2ccc(F)cc2)N1O (stereo not drawn) | 0.158 µM [falling, full curve]
49 | Cc1nn(-c2nc3ccccc3[nH]2)c(N)c1-c1ccccc1 | 10 µM [falling, partial curve]
50 | CCc1cc(=O)oc2cc(C)cc(OCc3nn[nH]n3)c12 | 25.1 µM [rising, single point]
51 | CC(=O)NC(=O)NC1OC(=O)C(Cl)=C1Cl (stereo not drawn) | 25.1 µM [falling, single point]
52 | Nc1nnnn1/N=C/c1ccccc1OCc1ccc(Cl)cc1Cl | 3.98 µM [rising, full curve]
53 | c1cc(Nc2ncnc3sccc23)cc(-c2nnc3n2CCCCC3)c1 | 6.31 µM [rising, partial curve]
54 | O=C(CN1CCCN(S(=O)(=O)c2ccc(F)cc2)CC1)Nc1ccccc1Br | 12.6 µM [rising, single point]
55 | CCc1nc(C)cn1S(=O)(=O)c1cc(Br)c(C)cc1OC | 10 µM [rising, partial curve]
56 | CC(=O)Nc1ccc(S(=O)(=O)N2CCN(c3cc(C)ccc3C)CC2)cc1 | 31.6 µM [falling, single point]
57 | COc1ccc(NC(=O)CNc2cccc(C#N)c2)cc1Cl | 3.98 µM [falling, single point]
58 | C(=C\c1ccccc1)/CSc1nnc(-c2cnccn2)n1Cc1ccco1 | 0.00398 µM [falling, full curve, poor fit]
59 | CC(C)N(C(=O)CSc1nc2c([nH]1)c(=O)n(C)c(=O)n2C)c1ccccc1 | 10 µM [rising, partial curve]
60 | Oc1ccc(C=Nc2ccc(N3CCOCC3)cc2)c(O)c1 | 25.1 µM [falling, single point]
61 | COC(=O)c1ccc(CSc2nc3c(cnn3-c3ccccc3)c(=O)[nH]2)o1 | 1 µM [rising, full curve]
62 | COC(=O)c1c(NC(=O)COC(=O)Cn2cnc3ccccc32)sc(C)c1C | 25.1 µM [rising, single point]
63 | Cc1[nH]n(-c2ccccc2)c(=O)c1S(=O)(=O)c1ccccc1 | 10 µM [falling, partial curve]
64 | CCOC(=O)c1c(C)[nH]c(C)c1C(=O)CSc1nnc(-c2cc(OC)c(OC)c(OC)c2)o1 | 0.2 µM [rising, full curve, poor fit]
65 | C=CCNC(=O)NC(=O)COC(=O)CCCSc1nc2ccccc2[nH]1 | 3.98 µM [falling, single point]
66 | COc1ccc(OC)c(-c2cc(C(=O)NCCCn3ccnc3)no2)c1 | 12.6 µM [rising, single point]
67 | O=C1NC(=O)C(c2ccccc2[N+](=O)[O-])=C1Nc1ccc(O)c(Cl)c1 | 25.1 µM [falling, partial curve, poor fit]
68 | Cc1ccc(Cn2nnc3c(=O)[nH]c(C4CCCN(C(=O)Nc5ccc(F)cc5)C4)nc32)cc1 (stereo not drawn) | 12.6 µM [rising, partial curve]
